Source: PubChem BioAssay AID2685 (National Center for Advancing Translational Sciences (NCATS), 2010)
The other results are listed elsewhere or left out. These are further read-outs of the screen, such as a control signal, another cell line or another target. No call is given for them. The list favours compounds with an active or inconclusive main result. The note in brackets gives the kind of curve behind each potency; many fits are weak.

Assay: qHTS Assay for Lipid Storage Modulators in Drosophila S3 Cells;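 for cell number change: cells counted by Cell Tracker Red CMTPX staining in the red channel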
Conditions: BODIPY lipid droplet fluorescence, 18-24 h; for cell number change: measured here: cell count max response, cells fed with added oleic acid
Outline: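 Laser-scanning cytometry quantifies lipid droplet accumulation (500–530 nm total intensity; droplet/cell object ratio) in oleic acid-fed (400 uM added) Drosophila S3 cells treated with a concentration series. 20 uM Triacsin C defined 100% inhibition.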

[1] = measured here: cell number channel AC50, cells fed with added oleic acid
[2] = measured here: lipid fluorescence (Fed channel) AC50, cells fed with added oleic acid

Row | Compound | cell number change [%] | AC50 [1] | AC50 [2]
1 | Cn1nc(C(F)(F)F)c(C#N)c1N1CCN(c2ccccn2)CC1 | 5.97 | 4.11 µM [rising, single point] | –
2 | Cc1ccc(CC(=O)N2CCN(S(=O)(=O)c3ccccc3)CC2)cc1C | – | – | 29.1 µM [rising, single point]
3 | CC(=O)Nc1cccc(NC(=O)CSc2ncc(-c3ccccc3)[nH]2)c1 | 27.5 | 2.06 µM [rising, partial curve, poor fit] | 6.51 µM [rising, partial curve]
4 | COc1ccc(CCNC(=O)COC(=O)Cn2cnc3c2c(=O)n(C)c(=O)n3C)cc1 | 5.26 | – | 29.1 µM [falling, single point]
5 | Fc1ccc(CNC(=S)Nc2ccc(Cl)cc2Cl)cc1 | -10 | – | 29.1 µM [falling, single point]
6 | Cc1cccc(N(CC(=O)NC2CCCC2)C(=O)CS(=O)CC(=O)Nc2ccc3c(c2)OCO3)c1 (stereo not drawn) | 31.8 | 4.11 µM [rising, partial curve, poor fit] | 0.00461 µM [falling, full curve, poor fit]
7 | CCN(CC)S(=O)(=O)c1ccc(C(=O)Nc2nnc(CSC)o2)cc1 | -7.86 | 0.103 µM [falling, full curve, poor fit] | –
8 | CC1CC(C)(C)CC2(C1)NC(=S)N(c1ccccc1)N2 (stereo not drawn) | 47.1 | 6.51 µM [rising, full curve] | 6.51 µM [rising, single point]
9 | O=C(c1ccccc1Cc1ccccc1)N1CCN(S(=O)(=O)c2ccccc2F)CC1 | 29.6 | – | 3.66 µM [falling, partial curve]
10 | NS(=O)(=O)c1cccc(NC(=S)NCc2ccc3c(c2)OCO3)c1 | 32.8 | 8.2 µM [rising, partial curve] | 7.31 µM [rising, partial curve]
11 | COc1ccccc1NC(=O)C1=C(C)NC(=O)NC1c1cc(C)cs1 (stereo not drawn) | -38.7 | 0.651 µM [falling, full curve] | 2.31 µM [falling, partial curve, poor fit]
12 | Cc1cc(NC(=O)CSc2nnc(NCc3ccco3)s2)no1 | -7.65 | – | 29.1 µM [falling, single point]
13 | Cc1oc(-c2ccccc2F)nc1CS(=O)(=O)CC(=O)NCCCN1CCN(C)CC1 | – | – | 29.1 µM [falling, partial curve]
14 | CCOc1cc(C=O)ccc1OCCSc1ccc(C)cc1 | -0.932 | – | 6.51 µM [falling, single point]
15 | O=C(NCCCN1CCOCC1)c1ccc(-n2nc(C(F)(F)F)cc2-c2cccs2)cc1 | -3.02 | – | 6.51 µM [rising, partial curve]
16 | CC(C)CNC(=O)COC(=O)c1cc(S(=O)(=O)N2CCCCC2)ccc1N1CCOCC1 | -28.6 | – | 16.4 µM [falling, single point]
17 | COc1ccc(-c2cc(CNS(=O)(=O)c3cc(OC)ccc3OC)on2)cc1 | -21.5 | – | 7.08 µM [falling, partial curve]
18 | COc1cc2c(cc1OC)CN(C(=O)c1cc(S(=O)(=O)N3CCOCC3)ccc1Cl)CC2 | -15.5 | – | 0.00517 µM [rising, full curve, poor fit]

Row | Compound | cell number change [%] | AC50 [1] | AC50 [2]
19 | Fc1ccc(Cn2nnc(-c3ccc(Cl)cc3)n2)cc1 | -26.4 | – | 29.1 µM [falling, single point]
20 | CC1Cc2ccccc2N1S(=O)(=O)c1cccc(C(=O)NCCCO)c1 (stereo not drawn) | -17.5 | – | 0.184 µM [rising, full curve, poor fit]
21 | Cc1oc(/N=C/c2ccc(F)cc2)c(C#N)c1C | 7.46 | – | 0.58 µM [rising, full curve]
22 | O=C(NCC1CCCO1)c1cccc(S(=O)(=O)N(Cc2ccccc2)c2ccccc2)c1 (stereo not drawn) | – | – | 6.51 µM [falling, single point]
23 | Oc1c(C(Nc2cccc(C(F)(F)F)c2)c2cccnc2)ccc2cccnc12 (stereo not drawn) | -25.1 | – | 32.6 µM [falling, single point]
24 | COc1cccc(N2CCN(CC(=O)C34CC5CC(CC(C5)C3)C4)CC2)c1 | – | – | 8.2 µM [falling, partial curve]
25 | CCOC(=O)c1ccccc1NC(=O)c1cccc(F)c1 | 83.2 | 8.2 µM [rising, partial curve] | 16.4 µM [rising, partial curve]
26 | COCCCN1C(=O)C(=O)/C(=C(/O)c2ccc(OC)cc2)C1c1ccc(O)c(OC)c1 (stereo not drawn) | – | 0.731 µM [falling, single point] | 0.92 µM [falling, single point]
27 | CCC1CN(C(=O)NCc2cccc(OC)c2)c2ccccc2O1 (stereo not drawn) | 81.6 | 20.6 µM [rising, single point] | 29.1 µM [rising, single point]
28 | COC(=O)C(=O)C/C(=N/Nc1ncnc2ccccc12)c1ccc(Cl)cc1 | – | – | 0.164 µM [falling, full curve, poor fit]
29 | N#Cc1nc(Cc2cccc3ccccc23)oc1NCC1CCCO1 (stereo not drawn) | 38.4 | 23.1 µM [rising, single point] | –
30 | COc1ccc(-c2[nH]c(-c3ccccc3)nc2SCC(=O)NC2CCCC2)cc1 | 1.05 | – | 1.64 µM [rising, partial curve]
31 | O=C(CSc1nnnn1-c1ccccc1)NCc1cccs1 | 42.2 | 29.1 µM [rising, single point] | 6.51 µM [rising, single point]
32 | O=c1oc2c3c4c(cc2c2c1CCC2)OCCN4CCC3 | 90.3 | 8.2 µM [rising, partial curve] | 9.2 µM [rising, partial curve]
33 | CCSc1nc(O)c(CC)c(=O)n1C(C)CC (stereo not drawn) | 7.62 | – | –
34 | CC(C)Nc1nc(NC(C)C)nc(SCCOC(=O)Nc2ccc(Cl)cc2Cl)n1 | 45.4 | 2.91 µM [rising, partial curve] | 5.8 µM [rising, partial curve]
35 | COc1cccc(NC(=O)[C@H](NC(=O)[C@@H]2Cc3ccccc3CN2)c2ccccc2)c1 | -3.07 | – | –

Random excerpt: 2 compounds from above
Row | Compound | cell number change [%] | AC50 [1] | AC50 [2]
1 | Cn1nc(C(F)(F)F)c(C#N)c1N1CCN(c2ccccn2)CC1 | 5.97 | 4.11 µM [rising, single point] | –
4 | COc1ccc(CCNC(=O)COC(=O)Cn2cnc3c2c(=O)n(C)c(=O)n3C)cc1 | 5.26 | – | 29.1 µM [falling, single point]
